This is a selection; strong and weak results do not stand in their true shares. At the low end of the ranking the order means little.
Legend:
[1] = target: T1, FEV (UniProt Q99581); assay: DAPPL (digital affinity profiling via proximity ligation, sequencing); details: 10 mM Tris-HCl pH 7.5, 50 mM NaCl, 1 mM DTT, 4% glycerol, room temperature, 30 min; GST-TFs on glutathione beads, 16-mer random dsDNA library, 0.1% …; high values mean tight binding; double strand, one strand shown; scale: fold enrichment (6-mer frequency, TF over GST control)
T1 sequence: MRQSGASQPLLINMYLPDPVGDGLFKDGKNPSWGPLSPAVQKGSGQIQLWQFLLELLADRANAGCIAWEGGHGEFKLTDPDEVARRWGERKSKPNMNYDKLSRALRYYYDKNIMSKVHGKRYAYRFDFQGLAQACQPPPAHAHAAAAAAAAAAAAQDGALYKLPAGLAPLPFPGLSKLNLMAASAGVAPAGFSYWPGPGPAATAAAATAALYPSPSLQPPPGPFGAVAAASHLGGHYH

[2] = target: T2, ELF5 (UniProt Q9UKW6-2); assay: as above; details: 10 mM Tris-HCl pH 7.5, 50 mM NaCl, 1 mM DTT, 4% glycerol, room temperature, 30 min; GST-TFs on glutathione beads, 16-mer random dsDNA library, 0.1% …; high values mean tight binding; double strand, one strand shown; scale: fold enrichment (6-mer frequency, TF over GST control)
T2 sequence: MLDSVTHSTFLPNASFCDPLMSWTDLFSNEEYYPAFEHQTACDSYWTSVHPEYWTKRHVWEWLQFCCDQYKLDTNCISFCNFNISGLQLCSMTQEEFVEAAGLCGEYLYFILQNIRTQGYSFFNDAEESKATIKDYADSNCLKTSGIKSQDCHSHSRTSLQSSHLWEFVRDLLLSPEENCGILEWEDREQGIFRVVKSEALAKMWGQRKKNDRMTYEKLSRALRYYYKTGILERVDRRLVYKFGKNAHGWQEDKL

Sequence | binding signal [1] | binding signal [2]
TTTACC | 1.32 | 1.2
TAGTAG | 0.963 | 0.976
CGCTAA | 0.934 | 0.912
AGGCTA | 0.939 | 0.901
GGATTA | 0.831 | 0.842
AGCTGA | 0.965 | 0.983
TCAGTA | 0.994 | 0.918
ACTGAT | 1.19 | 1.22
GATCTG | 0.939 | 0.921
ATTGAG | 0.965 | 0.935
AAGCCG | 0.947 | 0.893
CTTGAA | 1.05 | 1.15
ATAAGT | 0.956 | 0.99
TTAGTG | 0.832 | 0.793
AGGTTT | 0.92 | 1.04
GGCTTG | 1.01 | 0.982
CCAAAG | 0.972 | 0.891
TTAGGA | 0.885 | 0.975
AGAATC | 0.912 | 0.946
ATGAAG | 0.939 | 0.987

Some of the entries so far, in CSV form.
Sequence,binding signal [1],binding signal [2]
TCAGTA,0.994,0.918
ACTGAT,1.19,1.22

From PMC7862700
